Data published in publication PMC4391915.
Construct, isoform or probe ends are uncertain for at least one entry. For some assays here: Negatives hold for the conditions tested.

Assays:
[1] = test system: Bichir VDR + RXRWT; test: competition with a labelled probe; settings: 100-fold excess vs N1, with and without 1,25D3; 100 mM KCl, 10 mM HEPES pH 7.6, 1 mM EDTA, 20 mM MgCl2, 1 mM DTT, 0.1 mg/ml BSA, 4 ug/mL salmon sperm DNA, 1% glycerol, 25 C; 100 ng each protein, 1 pmol probe in 20 uL; recombinant protein; label: none (unlabeled competitor)
[2] = test system: Human VDR + RXRWT; test: competition with a labelled probe; settings: 100-fold excess vs N1, with and without 1,25D3; 100 mM KCl, 10 mM HEPES pH 7.6, 1 mM EDTA, 20 mM MgCl2, 1 mM DTT, 0.1 mg/ml BSA, 4 ug/mL salmon sperm DNA, 1% glycerol, 25 C; 100 ng each protein, 1 pmol probe in 20 uL; recombinant protein; label: none (unlabeled competitor)
[3] = test system: Lamprey VDR + RXRWT; test: competition with a labelled probe; settings: 100-fold excess vs N1, with and without 1,25D3; 100 mM KCl, 10 mM HEPES pH 7.6, 1 mM EDTA, 20 mM MgCl2, 1 mM DTT, 0.1 mg/ml BSA, 4 ug/mL salmon sperm DNA, 1% glycerol, 25 C; 100 ng each protein, 1 pmol probe in 20 uL; recombinant protein; label: none (unlabeled competitor)
[4] = test system: Skate VDR + RXRWT; test: competition with a labelled probe; settings: 100-fold excess vs N1, with and without 1,25D3; 100 mM KCl, 10 mM HEPES pH 7.6, 1 mM EDTA, 20 mM MgCl2, 1 mM DTT, 0.1 mg/ml BSA, 4 ug/mL salmon sperm DNA, 1% glycerol, 25 C; 100 ng each protein, 1 pmol probe in 20 uL; recombinant protein; label: none (unlabeled competitor)
[5] = test system: Bichir VDR + RXRWT; test: EMSA; settings: 100 mM KCl, 10 mM HEPES pH 7.6, 1 mM EDTA, 20 mM MgCl2, 1 mM DTT, 0.1 mg/ml BSA, 4 ug/mL salmon sperm DNA, 1% glycerol, 25 C, 100 ng each protein, 1 pmol probe in 20 uL, recombinant protein, label: 5' Cy5 (unlabeled as competitor)
[6] = test system: Human VDR + RXRWT; test: EMSA; settings: 100 mM KCl, 10 mM HEPES pH 7.6, 1 mM EDTA, 20 mM MgCl2, 1 mM DTT, 0.1 mg/ml BSA, 4 ug/mL salmon sperm DNA, 1% glycerol, 25 C, 100 ng each protein, 1 pmol probe in 20 uL, recombinant protein, label: 5' Cy5 (unlabeled as competitor)
[7] = test system: Lamprey VDR + RXRWT; test: EMSA; settings: 100 mM KCl, 10 mM HEPES pH 7.6, 1 mM EDTA, 20 mM MgCl2, 1 mM DTT, 0.1 mg/ml BSA, 4 ug/mL salmon sperm DNA, 1% glycerol, 25 C, 100 ng each protein, 1 pmol probe in 20 uL, recombinant protein, label: 5' Cy5 (unlabeled as competitor)
[8] = test system: Skate VDR + RXRWT; test: EMSA; settings: 100 mM KCl, 10 mM HEPES pH 7.6, 1 mM EDTA, 20 mM MgCl2, 1 mM DTT, 0.1 mg/ml BSA, 4 ug/mL salmon sperm DNA, 1% glycerol, 25 C, 100 ng each protein, 1 pmol probe in 20 uL, recombinant protein, label: 5' Cy5 (unlabeled as competitor)
[9] = 100 nM 1,25D3 (enhanced binding)
[10] = no ligand (ethanol), less than with 1,25D3

Sequence	binding result [1]	binding result [2]	binding result [3]	binding result [4]	binding result [5, 9]	binding result [5, 10]	binding result [6, 9]	binding result [6, 10]	binding result [7, 9]	binding result [7, 10]	binding result [8, 9]	binding result [8, 10]
AGCTTCAGAACAAGGAGAACAGAGAGC (double strand) [mutant canonical VDRE]	no binding	no binding	no binding	no binding	–	–	–	–	–	–	–	–
GCTGAATGAACTTGCTGACCCTCTGCT (double strand) [XREM VDRE (CYP3A4 DR3)]	–	–	–	–	binds	binds	binds	binds	binds	binds	binds	binds
AGCTTCAGGTCAAGGAGGTCAGAGAGC (double strand) [canonical VDRE (DR3)]	–	–	–	–	binds	binds	binds	binds	binds	binds	binds	binds
